Laboratory results as given in US9242009B2, “Compositions and methods to treat neurodegenerative diseases” (The General Hospital Corporation, priority 2012, dated 2016).
Some entries share one result that the patent states for a list of compounds.

Test system: SH-SY5Y cells
Test: Intracellular sulfide levels in SH-SY5Y cells (HPLC)
Assay type: cell-based, Human
Conditions: 20 μM
Experimental: Human neuroblastoma SH-SY5Y cells were cultured in Eagle's medium/Ham's F-12 50/50 Mix (DMEM/F12, Cellgro by Mediatech, Inc.) supplemented with 10% fetal bovine serum (FBS) and 1% penicillin/streptomycin. The cells were seeded into 96 well plates (2×10^4 cells per well) for OGD and measurements of toxicity, 6 cm dishes (5×10^5 cells per dish) for measurements of sulfide and reduced-glutathione (GSH), or 10 cm dishes (1×10^6 cells per dish) for measurements of intracellular calcium. Cell culture medium was replaced every 2 days, and the cultures were maintained at 37° C. in 95% air/5% CO2 in a humidified incubator. Cells were used after reaching 80% confluent.
Concentration of free sulfide in SH-SY5Y cells was measured using high performance liquid chromatography (HPLC) (Tokuda et al. (2012) Antioxidants & Redox Signaling). Briefly, SH-SY5Y cells were seeded into 6 cm dishes (5×10^5 cells per dish). After being 80% confluent, 20 μM H2S donor was added to the dish and incubated at 37° C. Cells were washed with ice-cold Tris-HCl (100 mM, PH 9.5, DTPA 0.1 mM) buffer, scraped, transferred to microfuge tubes, and centrifuged. MBB (10 mM in acetonitrile, 50 μl) was added to 100 μl of supernatant. After 30 minutes of incubation at room temperature in dark, 50 μl of 200 mM 5-sulfosalicylic acid (SSA) was added. After centrifugation, supernatant was analyzed by HPLC. […]

O=C(O)c1ccc(-c2cssc2=S)cc1 [ACS48, 4-(3-thioxo-3H-1,2-dithiol-4-yl)-benzoic acid]
Time by which the rise in intracellular sulfide disappeared: ≤ 8 h
